PMC8129428
No constants are given. Whether binding was seen depends on the method and setting. In cells and extracts the contact can be indirect. These calls come from enrichment with a bait or labelling near it, and not all partners need be listed. For part of these data: Where a sequence is shown, tags or fusion partners need not be part of it.

The chains behind the UniProt entries cited, without tags or fusion partners.
UniProt Q96LA8: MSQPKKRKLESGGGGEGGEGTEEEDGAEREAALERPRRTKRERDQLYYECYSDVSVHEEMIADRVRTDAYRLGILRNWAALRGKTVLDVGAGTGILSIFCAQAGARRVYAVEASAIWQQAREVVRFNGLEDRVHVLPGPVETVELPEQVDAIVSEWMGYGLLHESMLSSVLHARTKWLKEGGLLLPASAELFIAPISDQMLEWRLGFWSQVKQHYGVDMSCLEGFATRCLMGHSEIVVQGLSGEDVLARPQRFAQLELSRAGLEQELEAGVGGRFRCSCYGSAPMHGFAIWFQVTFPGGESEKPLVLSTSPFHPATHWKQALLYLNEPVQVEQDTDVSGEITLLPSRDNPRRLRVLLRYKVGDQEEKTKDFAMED
UniProt Q9UJU2: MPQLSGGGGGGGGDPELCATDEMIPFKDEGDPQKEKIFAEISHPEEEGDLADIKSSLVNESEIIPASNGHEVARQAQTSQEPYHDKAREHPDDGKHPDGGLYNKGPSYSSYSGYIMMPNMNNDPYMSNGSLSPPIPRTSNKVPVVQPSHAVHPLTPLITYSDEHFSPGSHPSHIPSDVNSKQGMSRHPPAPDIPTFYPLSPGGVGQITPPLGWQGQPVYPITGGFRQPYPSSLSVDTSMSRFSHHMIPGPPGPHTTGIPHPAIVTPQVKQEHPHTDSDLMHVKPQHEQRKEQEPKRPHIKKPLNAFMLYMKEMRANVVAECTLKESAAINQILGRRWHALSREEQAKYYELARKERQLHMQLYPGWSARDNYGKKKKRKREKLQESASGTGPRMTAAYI
UniProt P49750: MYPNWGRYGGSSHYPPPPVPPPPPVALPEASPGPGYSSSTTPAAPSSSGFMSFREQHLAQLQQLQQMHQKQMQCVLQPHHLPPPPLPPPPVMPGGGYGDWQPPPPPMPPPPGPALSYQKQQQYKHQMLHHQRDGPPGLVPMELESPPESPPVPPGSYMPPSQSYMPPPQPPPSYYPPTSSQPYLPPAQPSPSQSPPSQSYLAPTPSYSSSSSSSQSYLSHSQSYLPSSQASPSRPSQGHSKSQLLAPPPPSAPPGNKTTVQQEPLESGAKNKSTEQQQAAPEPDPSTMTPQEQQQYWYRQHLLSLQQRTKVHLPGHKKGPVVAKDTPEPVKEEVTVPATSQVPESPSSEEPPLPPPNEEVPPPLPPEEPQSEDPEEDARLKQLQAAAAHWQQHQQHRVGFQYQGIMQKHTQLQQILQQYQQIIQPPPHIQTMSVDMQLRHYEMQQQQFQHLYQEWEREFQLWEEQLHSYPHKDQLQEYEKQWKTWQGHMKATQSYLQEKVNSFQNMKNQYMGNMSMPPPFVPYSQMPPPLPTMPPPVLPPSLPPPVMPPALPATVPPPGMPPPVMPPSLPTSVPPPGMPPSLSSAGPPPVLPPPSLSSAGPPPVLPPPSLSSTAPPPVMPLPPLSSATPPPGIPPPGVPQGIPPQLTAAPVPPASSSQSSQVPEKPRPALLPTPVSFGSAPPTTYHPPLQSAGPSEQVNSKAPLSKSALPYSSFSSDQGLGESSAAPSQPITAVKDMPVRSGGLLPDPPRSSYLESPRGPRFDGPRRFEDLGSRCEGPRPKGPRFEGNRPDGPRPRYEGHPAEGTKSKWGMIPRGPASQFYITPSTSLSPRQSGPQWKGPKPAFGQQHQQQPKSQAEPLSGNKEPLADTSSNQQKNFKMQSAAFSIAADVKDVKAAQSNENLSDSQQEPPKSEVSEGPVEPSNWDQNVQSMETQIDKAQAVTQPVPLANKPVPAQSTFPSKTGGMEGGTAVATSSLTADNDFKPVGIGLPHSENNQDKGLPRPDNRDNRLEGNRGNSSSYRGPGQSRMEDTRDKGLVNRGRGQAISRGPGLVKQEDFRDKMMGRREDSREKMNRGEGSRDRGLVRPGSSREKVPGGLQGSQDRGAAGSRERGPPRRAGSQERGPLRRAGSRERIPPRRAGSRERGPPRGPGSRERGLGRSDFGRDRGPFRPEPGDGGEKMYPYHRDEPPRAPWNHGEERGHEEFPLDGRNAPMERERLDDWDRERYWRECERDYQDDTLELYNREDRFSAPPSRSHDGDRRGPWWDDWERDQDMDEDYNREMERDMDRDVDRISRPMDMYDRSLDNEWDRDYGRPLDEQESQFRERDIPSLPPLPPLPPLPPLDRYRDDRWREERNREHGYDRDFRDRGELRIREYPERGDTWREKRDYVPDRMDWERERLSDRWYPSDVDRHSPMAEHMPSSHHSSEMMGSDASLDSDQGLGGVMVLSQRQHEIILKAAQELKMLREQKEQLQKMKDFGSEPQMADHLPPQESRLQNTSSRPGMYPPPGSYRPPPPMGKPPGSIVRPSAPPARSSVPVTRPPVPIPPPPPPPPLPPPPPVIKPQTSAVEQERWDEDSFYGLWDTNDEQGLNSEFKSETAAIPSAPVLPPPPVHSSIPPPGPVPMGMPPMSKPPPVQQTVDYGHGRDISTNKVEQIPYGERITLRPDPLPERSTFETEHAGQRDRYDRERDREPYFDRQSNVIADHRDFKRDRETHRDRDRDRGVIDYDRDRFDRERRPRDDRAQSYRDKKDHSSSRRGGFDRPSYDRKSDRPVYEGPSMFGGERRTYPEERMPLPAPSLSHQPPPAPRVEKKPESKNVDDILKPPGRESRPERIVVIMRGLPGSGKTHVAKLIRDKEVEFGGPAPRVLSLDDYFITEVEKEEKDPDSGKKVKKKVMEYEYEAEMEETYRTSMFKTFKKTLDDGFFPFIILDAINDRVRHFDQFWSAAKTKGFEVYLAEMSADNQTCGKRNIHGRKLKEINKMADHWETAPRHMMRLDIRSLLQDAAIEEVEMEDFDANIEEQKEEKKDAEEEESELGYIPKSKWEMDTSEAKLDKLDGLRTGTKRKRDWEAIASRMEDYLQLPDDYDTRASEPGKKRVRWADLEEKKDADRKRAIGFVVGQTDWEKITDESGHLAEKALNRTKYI
UniProt Q01196: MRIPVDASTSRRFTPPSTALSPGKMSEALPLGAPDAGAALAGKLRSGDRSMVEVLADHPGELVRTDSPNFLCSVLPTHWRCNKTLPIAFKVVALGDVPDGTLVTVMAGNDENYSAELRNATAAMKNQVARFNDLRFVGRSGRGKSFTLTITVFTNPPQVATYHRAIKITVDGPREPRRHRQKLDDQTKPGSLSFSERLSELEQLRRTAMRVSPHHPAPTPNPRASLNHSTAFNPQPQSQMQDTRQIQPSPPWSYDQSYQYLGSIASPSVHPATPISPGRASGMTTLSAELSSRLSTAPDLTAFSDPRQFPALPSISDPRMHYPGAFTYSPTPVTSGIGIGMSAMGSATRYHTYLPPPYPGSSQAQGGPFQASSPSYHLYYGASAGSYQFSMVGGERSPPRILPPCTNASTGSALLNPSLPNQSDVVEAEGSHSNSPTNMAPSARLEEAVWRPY
UniProt Q9NYF8: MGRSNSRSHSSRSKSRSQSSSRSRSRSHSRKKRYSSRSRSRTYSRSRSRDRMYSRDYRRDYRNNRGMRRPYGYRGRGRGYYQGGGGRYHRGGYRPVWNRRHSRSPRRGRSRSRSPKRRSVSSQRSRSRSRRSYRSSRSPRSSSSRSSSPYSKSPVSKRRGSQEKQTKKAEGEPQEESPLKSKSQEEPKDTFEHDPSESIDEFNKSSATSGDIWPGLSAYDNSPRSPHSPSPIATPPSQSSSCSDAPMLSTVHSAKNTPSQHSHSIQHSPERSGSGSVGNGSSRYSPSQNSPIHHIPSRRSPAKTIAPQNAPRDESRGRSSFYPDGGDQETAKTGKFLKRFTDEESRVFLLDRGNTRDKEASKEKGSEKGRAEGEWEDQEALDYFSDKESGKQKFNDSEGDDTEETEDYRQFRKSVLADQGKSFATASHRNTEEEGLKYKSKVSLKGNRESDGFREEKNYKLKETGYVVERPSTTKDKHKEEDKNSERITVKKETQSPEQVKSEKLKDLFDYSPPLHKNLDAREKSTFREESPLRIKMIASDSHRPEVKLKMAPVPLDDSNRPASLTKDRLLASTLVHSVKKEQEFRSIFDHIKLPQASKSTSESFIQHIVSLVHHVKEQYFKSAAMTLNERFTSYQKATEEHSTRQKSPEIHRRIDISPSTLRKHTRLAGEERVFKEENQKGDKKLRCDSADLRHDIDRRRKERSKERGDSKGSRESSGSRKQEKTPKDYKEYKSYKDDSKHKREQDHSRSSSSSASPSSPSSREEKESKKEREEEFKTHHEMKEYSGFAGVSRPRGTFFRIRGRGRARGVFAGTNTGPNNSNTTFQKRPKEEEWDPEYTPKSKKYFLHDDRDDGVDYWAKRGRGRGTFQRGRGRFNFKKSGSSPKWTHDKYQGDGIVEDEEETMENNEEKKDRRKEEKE
UniProt Q12905: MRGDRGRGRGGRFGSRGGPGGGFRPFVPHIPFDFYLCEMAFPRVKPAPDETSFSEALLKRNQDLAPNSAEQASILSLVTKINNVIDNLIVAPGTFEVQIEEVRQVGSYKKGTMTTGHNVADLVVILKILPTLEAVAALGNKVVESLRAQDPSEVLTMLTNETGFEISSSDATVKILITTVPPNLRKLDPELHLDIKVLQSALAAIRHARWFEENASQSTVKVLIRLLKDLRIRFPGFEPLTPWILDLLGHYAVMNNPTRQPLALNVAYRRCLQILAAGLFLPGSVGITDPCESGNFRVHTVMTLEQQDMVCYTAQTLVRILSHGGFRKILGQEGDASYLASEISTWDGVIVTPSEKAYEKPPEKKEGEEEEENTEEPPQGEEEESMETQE
UniProt Q99873: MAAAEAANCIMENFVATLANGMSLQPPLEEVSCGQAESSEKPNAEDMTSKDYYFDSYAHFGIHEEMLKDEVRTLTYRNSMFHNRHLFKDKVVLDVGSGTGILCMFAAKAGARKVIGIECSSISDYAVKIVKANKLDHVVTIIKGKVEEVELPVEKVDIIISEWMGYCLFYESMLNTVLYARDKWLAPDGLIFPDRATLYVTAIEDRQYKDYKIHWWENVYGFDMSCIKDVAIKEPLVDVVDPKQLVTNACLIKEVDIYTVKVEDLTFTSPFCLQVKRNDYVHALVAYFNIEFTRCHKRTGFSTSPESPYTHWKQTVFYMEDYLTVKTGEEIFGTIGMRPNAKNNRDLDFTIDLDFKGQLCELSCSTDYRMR

B1: MBD1, endogenous in K562 (protein, UniProt Q9UIS9 1-605)
chain: MAEDWLDCPALGPGWKRREVFRKSGATCGRSDTYYQSPTGDRIRSKVELTRYLGPACDLTLFDFKQGILCYPAPKAHPVAVASKKRKKPSRPAKTRKRQVGPQSGEVRKEAPRDETKADTDTAPASFPAPGCCENCGISFSGDGTQRQRLKTLCKDCRAQRIAFNREQRMFKRVGCGECAACQVTEDCGACSTCLLQLPHDVASGLFCKCERRRCLRIVERSRGCGVCRGCQTQEDCGHCPICLRPPRPGLRRQWKCVQRRCLRGKHARRKGGCDSKMAARRRPGAQPLPPPPPSQSPEPTEPHPRALAPSPPAEFIYYCVDEDELQPYTNRRQNRKCGACAACLRRMDCGRCDFCCDKPKFGGSNQKRQKCRWRQCLQFAMKRLLPSVWSESEDGAGSPPPYRRRKRPSSARRHHLGPTLKPTLATRTAQPDHTQAPTKQEAGGGFVLPPPGTDLVFLREGASSPVQVPGPVAASTEALLQEAQCSGLSWVVALPQVKQEKADTQDEWTPGTAVLTSPVLVPGCPSKAVDPGLPSVKQEPPDPEEDKEENKDDSASKLAPEEEAGGAGTPVITEIFSLGGTRFRDTAVWLPRSKDLKKPGARKQ
B2: ILF3, endogenous in K562 (protein, UniProt Q12906 1-894)
chain: MRPMRIFVNDDRHVMAKHSSVYPTQEELEAVQNMVSHTERALKAVSDWIDEQEKGSSEQAESDNMDVPPEDDSKEGAGEQKTEHMTRTLRGVMRVGLVAKGLLLKGDLDLELVLLCKEKPTTALLDKVADNLAIQLAAVTEDKYEILQSVDDAAIVIKNTKEPPLSLTIHLTSPVVREEMEKVLAGETLSVNDPPDVLDRQKCLAALASLRHAKWFQARANGLKSCVIVIRVLRDLCTRVPTWGPLRGWPLELLCEKSIGTANRPMGAGEALRRVLECLASGIVMPDGSGIYDPCEKEATDAIGHLDRQQREDITQSAQHALRLAAFGQLHKVLGMDPLPSKMPKKPKNENPVDYTVQIPPSTTYAITPMKRPMEEDGEEKSPSKKKKKIQKKEEKAEPPQAMNALMRLNQLKPGLQYKLVSQTGPVHAPIFTMSVEVDGNSFEASGPSKKTAKLHVAVKVLQDMGLPTGAEGRDSSKGEDSAEETEAKPAVVAPAPVVEAVSTPSAAFPSDATAEQGPILTKHGKNPVMELNEKRRGLKYELISETGGSHDKRFVMEVEVDGQKFQGAGSNKKVAKAYAALAALEKLFPDTPLALDANKKKRAPVPVRGGPKFAAKPHNPGFGMGGPMHNEVPPPPNLRGRGRGGSIRGRGRGRGFGGANHGGYMNAGAGYGSYGYGGNSATAGYSQFYSNGGHSGNASGGGGGGGGGSSGYGSYYQGDNYNSPVPPKHAGKKQPHGGQQKPSYGSGYQSHQGQQQSYNQSPYSNYGPPQGKQKGYNHGQGSYSYSNSYNSPGGGGGSDYNYESKFNYSGSGGRSGGNSYGSGGASYNPGSHGGYGGGSGGGSSYQGKQGGYSQSNYNSPGSGQNYSGPPSSYQSSQGGYGRNADHSMNYQYR
B3: LUC7L3, endogenous in K562 (protein, UniProt O95232 1-432)
chain: MISAAQLLDELMGRDRNLAPDEKRSNVRWDHESVCKYYLCGFCPAELFTNTRSDLGPCEKIHDENLRKQYEKSSRFMKVGYERDFLRYLQSLLAEVERRIRRGHARLALSQNQQSSGAAGPTGKNEEKIQVLTDKIDVLLQQIEELGSEGKVEEAQGMMKLVEQLKEERELLRSTTSTIESFAAQEKQMEVCEVCGAFLIVGDAQSRVDDHLMGKQHMGYAKIKATVEELKEKLRKRTEEPDRDERLKKEKQEREEREKEREREREERERKRRREEEEREKERARDRERRKRSRSRSRHSSRTSDRRCSRSRDHKRSRSRERRRSRSRDRRRSRSHDRSERKHRSRSRDRRRSKSRDRKSYKHRSKSRDREQDRKSKEKEKRGSDDKKSSVKSGSREKQSEDTNTESKESDTKNEVNGTSEDIKSEGDTQSN
B4: NONO, endogenous in K562, Q15233 1-471 (protein)
chain: MQSNKTFNLEKQNHTPRKHHQHHHQQQHHQQQQQQPPPPPIPANGQQASSQNEGLTIDLKNFRKPGEKTFTQRSRLFVGNLPPDITEEEMRKLFEKYGKAGEVFIHKDKGFGFIRLETRTLAEIAKVELDNMPLRGKQLRVRFACHSASLTVRNLPQYVSNELLEEAFSVFGQVERAVVIVDDRGRPSGKGIVEFSGKPAARKALDRCSEGSFLLTTFPRPVTVEPMDQLDDEEGLPEKLVIKNQQFHKEREQPPRFAQPGSFEYEYAMRWKALIEMEKQQQDQVDRNIKEAREKLEMEMEAARHEHQVMLMRQDLMRRQEELRRMEELHNQEVQKRKQLELRQEEERRRREEEMRRQQEEMMRRQQEGFKGTFPDAREQEIRMGQMAMGGAMGINNRGAMPPAPVPAGTPAPPGPATMMPDGTLGLTPPTTERFGQAATMEGIGAIGGTPPAFNRAAPGAEFAPNKRRRY
modifications: here or on the partner: biotin on the avi-tag (biotinylated in the cells by BirA-ligase)
B5: VGLL4, endogenous in K562 (protein, UniProt Q14135 1-290)
chain: METPLDVLSRAASLVHADDEKREAALRGEPRIQTLPVASALSSHRTGPPPISPSKRKFSMEPGDEDLDCDNDHVSKMSRIFNPHLNKTANGDCRRDPRERSRSPIERAVAPTMSLHGSHLYTSLPSLGLEQPLALTKNSLDASRPAGLSPTLTPGERQQNRPSVITCASAGARNCNLSHCPIAHSGCAAPGPASYRRPPSAATTCDPVVEEHFRRSLGKNYKEPEPAPNSVSITGSVDDHFAKALGDTWLQIKAAKDGASSSPESASRRGQPASPSAHMVSHSHSPSVVS
B6: POLDIP3, endogenous in K562 (protein, UniProt Q9BY77 1-421)
chain: MADISLDELIRKRGAAAKGRLNARPGVGGVRSRVGIQQGLLSQSTRTATFQQRFDARQKIGLSDARLKLGVKDAREKLLQKDARFRIKGKVQDAREMLNSRKQQTTVPQKPRQVADAREKISLKRSSPAAFINPPIGTVTPALKLTKTIQVPQQKAMAPLHPHPAGMRINVVNNHQAKQNLYDLDEDDDGIASVPTKQMKFAASGGFLHHMAGLSSSKLSMSKALPLTKVVQNDAYTAPALPSSIRTKALTNMSRTLVNKEEPPKELPAAEPVLSPLEGTKMTVNNLHPRVTEEDIVELFCVCGALKRARLVHPGVAEVVFVKKDDAITAYKKYNNRCLDGQPMKCNLHMNGNVITSDQPILLRLSDSPSMKKESELPRRVNSASSSNPPAEVDPDTILKALFKSSGASVTTQPTEFKIKL

Key:
[1] = molecular target: avi-PRMT6 (protein arginine methyltransferase 6), biotinylated, in K562 cells (UniProt Q96LA8); assay: affinity purification with mass spectrometry; avi-PRMT6 pulled from K562 nuclear extracts with streptavidin beads (Dynabeads M-280); SILAC heavy (avi-PRMT6 + BirA-ligase) against light (control); washes 10 mM Tris pH 7.5, 0.2 M NaCl, 10% glycerol, 0.5 mM DTT, 0.1% NP-40; LC-MS/MS
[2] = molecular target: avi-PRMT6 (protein arginine methyltransferase 6), biotinylated, in K562 cells, Q96LA8; assay: as above; conditions: remark: other sources report otherwise

| Molecule | binding [1] | binding [2] |
| --- | --- | --- |
| LEF1, endogenous in K562 (from UniProt Q9UJU2 1-399) | binds | – |
| YLPM1, endogenous in K562 (from UniProt P49750 1-2146) | binds | – |
| RUNX1, endogenous in K562 (from UniProt Q01196 1-453) | binds | – |
| BCLAF1, endogenous in K562 (from UniProt Q9NYF8 1-920) | binds | – |
| ILF2, endogenous in K562 (from UniProt Q12905 1-390) | binds | – |
| PRMT1, endogenous in K562 (from UniProt Q99873 1-371) (enzyme) | binds | – |
| B1 | binds | – |
| B2 | binds | – |
| B3 | binds | – |
| B4 | – | binds |
| B5 | binds | – |
| B6 | binds | – |
